Values from PubChem BioAssay AID652272 (Drosophila RNAi Screening Center, 2013).
In all, the deposit lists about 21,000 reagents; below is an unselected part of those that have a named target and a result. Over the whole deposit, 503 (2.4%) were called active. 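Raw plate light values, not normalised; calls rest on replicate z-scores that were not deposited; hits include reporter decreases as well as increases.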 Reagents against one gene are numbered here. Not stated in the record: the amount of reagent, the time to read-out.

Test: 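Genes whose knock-down decreases or increases Hedgehog reporter output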 (primary screen)
Cells: Drosophila clone 8 (Cl8) cells
Reagent: long dsRNA against Drosophila genes
Detection: 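Firefly light from a Hedgehog-responsive ptc promoter reporter and Renilla reference light, both read on a plate reader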
Scale: firefly Hh reporter signal: higher = more ptc reporter light; Renilla reference signal: higher = more Renilla control light
Hit rule: 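Called a hit if the two-replicate mean z-score lies below -2 or above +3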
Calls: active = hit: reporter lowered or raised; inactive = not a hit

After knock-down of Mec2 (GeneID 32905), the screen gave firefly Hh reporter signal, replicate 1 = 1.10e5; firefly Hh reporter signal, replicate 2 = 78695; Renilla reference signal, replicate 1 = 2584; Renilla reference signal, replicate 2 = 1665; inactive.
rumi (GeneID 326122) scored firefly Hh reporter signal, replicate 1 = 95283; firefly Hh reporter signal, replicate 2 = 1.05e5; Renilla reference signal, replicate 1 = 4201; Renilla reference signal, replicate 2 = 3843; inactive.
With knock-down of Jhe (GeneID 36780), the screen gave firefly Hh reporter signal, replicate 1 = 59446; firefly Hh reporter signal, replicate 2 = 40773; Renilla reference signal, replicate 1 = 1858; Renilla reference signal, replicate 2 = 2924; inactive.
mRpL33 (GeneID 50381) scored firefly Hh reporter signal, replicate 1 = 83643; firefly Hh reporter signal, replicate 2 = 3.01e5; Renilla reference signal, replicate 1 = 2945; Renilla reference signal, replicate 2 = 9525; inactive.
For CG17380 (GeneID 42766), the entry reads firefly Hh reporter signal, replicate 1 = 6.37e5; firefly Hh reporter signal, replicate 2 = 80839; Renilla reference signal, replicate 1 = 35299; Renilla reference signal, replicate 2 = 2720; inactive.
Tsp42Ec (GeneID 35612) gave firefly Hh reporter signal, replicate 1 = 72080; firefly Hh reporter signal, replicate 2 = 61763; Renilla reference signal, replicate 1 = 1979; Renilla reference signal, replicate 2 = 5061; inactive.
CG9662 (GeneID 33554) showed firefly Hh reporter signal, replicate 1 = 1.43e5; firefly Hh reporter signal, replicate 2 = 68629; Renilla reference signal, replicate 1 = 3513; Renilla reference signal, replicate 2 = 6576; inactive.
Depletion of CG13004 (GeneID 32673) came out at: firefly Hh reporter signal, replicate 1 = 66371; firefly Hh reporter signal, replicate 2 = 1.83e5; Renilla reference signal, replicate 1 = 2075; Renilla reference signal, replicate 2 = 7669; inactive.
After knock-down of CG5194 (GeneID 39037), the screen gave firefly Hh reporter signal, replicate 1 = 84167; firefly Hh reporter signal, replicate 2 = 74323; Renilla reference signal, replicate 1 = 3380; Renilla reference signal, replicate 2 = 3223; inactive.
With knock-down of CG7079 (GeneID 42488), the record shows firefly Hh reporter signal, replicate 1 = 5.37e5; firefly Hh reporter signal, replicate 2 = 94634; Renilla reference signal, replicate 1 = 27896; Renilla reference signal, replicate 2 = 3120; inactive.
For CG12689 (GeneID 31676), the entry reads firefly Hh reporter signal, replicate 1 = 71193; firefly Hh reporter signal, replicate 2 = 2.07e5; Renilla reference signal, replicate 1 = 2352; Renilla reference signal, replicate 2 = 7158; inactive.
CG18635 (GeneID 37031) scored firefly Hh reporter signal, replicate 1 = 6.18e5; firefly Hh reporter signal, replicate 2 = 99760; Renilla reference signal, replicate 1 = 4512; Renilla reference signal, replicate 2 = 4512; inactive.
With knock-down of CG13933 (GeneID 38227) the results were firefly Hh reporter signal, replicate 1 = 1.16e5; firefly Hh reporter signal, replicate 2 = 72209; Renilla reference signal, replicate 1 = 5042; Renilla reference signal, replicate 2 = 3172; inactive.
After knock-down of Srg3 (GeneID 39092) #1 the results were firefly Hh reporter signal, replicate 1 = 1.34e5; firefly Hh reporter signal, replicate 2 = 2.69e5; Renilla reference signal, replicate 1 = 3764; Renilla reference signal, replicate 2 = 12265; inactive.
Silencing of Srg3 (GeneID 39092) #2 came out at: firefly Hh reporter signal, replicate 1 = 33968; firefly Hh reporter signal, replicate 2 = 64605; firefly Hh reporter signal, replicate 3 = 62250; Renilla reference signal, replicate 1 = 6653; Renilla reference signal, replicate 2 = 4793; inactive.
For Aatf (GeneID 33943), the entry reads firefly Hh reporter signal, replicate 1 = 1.01e5; firefly Hh reporter signal, replicate 2 = 58680; Renilla reference signal, replicate 1 = 2576; Renilla reference signal, replicate 2 = 6464; inactive.
CG30281 (GeneID 246525) showed firefly Hh reporter signal, replicate 1 = 1.04e5; firefly Hh reporter signal, replicate 2 = 1.09e5; Renilla reference signal, replicate 1 = 3668; Renilla reference signal, replicate 2 = 3840; inactive.
CG13130 (retired record) (GeneID 50439) showed firefly Hh reporter signal, replicate 1 = 72810; firefly Hh reporter signal, replicate 2 = 28508; Renilla reference signal, replicate 1 = 3493; Renilla reference signal, replicate 2 = 5424; active.
With knock-down of HP1D3csd (GeneID 32906), the record shows firefly Hh reporter signal, replicate 1 = 80112; firefly Hh reporter signal, replicate 2 = 1.87e5; Renilla reference signal, replicate 1 = 3178; Renilla reference signal, replicate 2 = 8129; inactive.
After knock-down of Marcal1 (GeneID 33709), the screen gave firefly Hh reporter signal, replicate 1 = 1.15e5; firefly Hh reporter signal, replicate 2 = 37045; Renilla reference signal, replicate 1 = 3040; Renilla reference signal, replicate 2 = 3921; inactive.
HPS1 (GeneID 36656) scored firefly Hh reporter signal, replicate 1 = 94710; firefly Hh reporter signal, replicate 2 = 65188; Renilla reference signal, replicate 1 = 2614; Renilla reference signal, replicate 2 = 2244; inactive.
